# Measurements: the supplement of paper PMC4604168 (melanoma cell lines)
# The other results are listed elsewhere or left out. Many values rest on one well or one pass, so single values are uncertain.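 Imaging used 1,536-well plates; nuclei positive for cleaved PARP by antibody were divided by total DNA-stained nuclei to yield the apoptosis fraction. Doses for screening kept most cells viable, and cell lines differ markedly in resting and induced cleaved-PARP levels.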
# Legend:
# Assay in all cases: cleaved PARP positive nuclei fraction relative to DMSO control; melanoma cells; higher = more apoptosis
# Conditions in all cases: library dose: low library concentration; 72 h
# 501Mel = system: 501Mel
# A101D = system: A101D
# A2058 = system: A2058
# A375 = system: A375
# C32 = system: C32
# CBRC008 = system: CBRC008 (line from a melanoma biopsy)
# CBRC014 = system: CBRC014 (line from a melanoma biopsy)
# CBRC016 = system: CBRC016 (line from a melanoma biopsy)
# CBRC017 = system: CBRC017 (line from a melanoma biopsy)
# CBRC034 = system: CBRC034 (line from a melanoma biopsy)
# COLO792 = system: COLO792
# COLO800 = system: COLO800
# COLO829 = system: COLO829
# G361 = system: G361
# IPC-298 = system: IPC-298
# IST-MEL1 = system: IST-MEL1
# LB2518-MEL = system: LB2518-MEL
# LOXIMVI = system: LOXIMVI
# MEL-HO = system: MEL-HO
Compound,cleaved PARP positive nuclei fraction (501Mel),cleaved PARP positive nuclei fraction (A101D),cleaved PARP positive nuclei fraction (A2058),cleaved PARP positive nuclei fraction (A375),cleaved PARP positive nuclei fraction (C32),cleaved PARP positive nuclei fraction (CBRC008),cleaved PARP positive nuclei fraction (CBRC014),cleaved PARP positive nuclei fraction (CBRC016),cleaved PARP positive nuclei fraction (CBRC017),cleaved PARP positive nuclei fraction (CBRC034),cleaved PARP positive nuclei fraction (COLO792),cleaved PARP positive nuclei fraction (COLO800),cleaved PARP positive nuclei fraction (COLO829),cleaved PARP positive nuclei fraction (G361),cleaved PARP positive nuclei fraction (IPC-298),cleaved PARP positive nuclei fraction (IST-MEL1),cleaved PARP positive nuclei fraction (LB2518-MEL),cleaved PARP positive nuclei fraction (LOXIMVI),cleaved PARP positive nuclei fraction (MEL-HO)
"COc1cc([C@@H]2c3cc4c(cc3[C@@H](O[C@@H]3O[C@@H]5CO[C@@H](C)O[C@H]5[C@H](O)[C@H]3O)[C@H]3COC(=O)[C@H]23)OCO4)cc(OC)c1O [etoposide] + COc1ccc(C2=N[C@@H](c3ccc(Cl)cc3)[C@@H](c3ccc(Cl)cc3)N2C(=O)N2CCNC(=O)C2)c(OC(C)C)c1 [Nutlin-3] (first compound 0.02 µM, partner dose 0.1 µM)",113%,195%,52.8%,50%,86%,44%,98.5%,79.2%,125%,128%,92.6%,187%,181%,84.6%,88.7%,79.6%,94.8%,158%,125%
"COc1cc([C@@H]2c3cc4c(cc3[C@@H](O[C@@H]3O[C@@H]5CO[C@@H](C)O[C@H]5[C@H](O)[C@H]3O)[C@H]3COC(=O)[C@H]23)OCO4)cc(OC)c1O [etoposide] + Cc1cc(Nc2cc(N3CCN(C)CC3)nc(/C=C/c3ccccc3)n2)n[nH]1 [ENMD2076] (first compound 0.02 µM, partner dose 0.04 µM)",69.3%,40%,90.4%,173%,90.4%,187%,78.5%,57%,68.9%,21.6%,103%,84%,68.3%,175%,85%,194%,56%,80.6%,103%
"Cc1cn(-c2cc(NC(=O)c3ccc(C)c(Nc4nccc(-c5cccnc5)n4)c3)cc(C(F)(F)F)c2)cn1 [nilotinib] + Cn1nnc2c(C(N)=O)ncn2c1=O [temozolomide] (first compound 0.2 µM, partner dose 2 µM)",107%,371%,140%,177%,74.2%,65.4%,114%,100%,177%,82.1%,115%,92.3%,148%,189%,46.2%,32.9%,50.4%,251%,76.4%
"Cc1cc(Nc2cc(N3CCN(C)CC3)nc(Sc3ccc(NC(=O)C4CC4)cc3)n2)n[nH]1 [Tozasertib] + CCCS(=O)(=O)Nc1ccc(F)c(C(=O)c2c[nH]c3ncc(Cl)cc23)c1F [PLX4720] (first compound 0.006 µM, partner dose 0.08 µM)",95.9%,40.1%,72.2%,153%,106%,104%,123%,43.4%,116%,32.5%,162%,147%,94.7%,95.1%,131%,77.2%,115%,236%,136%
"N#CC[C@H](C1CCCC1)n1cc(-c2ncnc3[nH]ccc23)cn1 [ruxolitinib] + Cn1c(=O)n(-c2ccc(C(C)(C)C#N)cc2)c2c3cc(-c4cnc5ccccc5c4)ccc3ncc21 [NVP-BEZ235] (first compound 1 µM, partner dose 0.004 µM)",66.3%,132%,129%,29.3%,80.3%,80.5%,84.5%,53.7%,150%,49.8%,123%,167%,189%,106%,41.8%,140%,101%,211%,80.2%
"Cc1cn(-c2cc(NC(=O)c3ccc(C)c(Nc4nccc(-c5cccnc5)n4)c3)cc(C(F)(F)F)c2)cn1 [nilotinib] + Clc1ccc(Nc2nnc(Cc3ccncc3)c3ccccc23)cc1 [vatalanib] (first compound 0.2 µM, partner dose 2 µM)",54.7%,157%,77.3%,159%,77.7%,39.7%,86.6%,115%,108%,117%,69.5%,33.3%,55.9%,87.4%,42.1%,60.3%,116%,119%,41.8%
"CCCCCCCCCCCCCCCCCCOP(=O)([O-])OC1CC[N+](C)(C)CC1 [Perifosine] + Nc1ccn([C@@H]2O[C@H](CO)[C@@H](O)C2(F)F)c(=O)n1 [gemcitabine] (first compound 0.4 µM, partner dose 0.0004 µM)",102%,45.8%,148%,1560%,35%,200%,147%,202%,103%,74.1%,117%,49.3%,103%,155%,131%,252%,237%,64.5%,82.2%
"Cc1cn(-c2cc(NC(=O)c3ccc(C)c(Nc4nccc(-c5cccnc5)n4)c3)cc(C(F)(F)F)c2)cn1 [nilotinib] + COc1ccc(C2=N[C@@H](c3ccc(Cl)cc3)[C@@H](c3ccc(Cl)cc3)N2C(=O)N2CCNC(=O)C2)c(OC(C)C)c1 [Nutlin-3] (first compound 0.2 µM, partner dose 0.1 µM)",73.8%,135%,73.2%,42.6%,72.3%,50.2%,87.3%,269%,117%,102%,64.9%,119%,40.4%,159%,94.6%,57.8%,55.9%,197%,110%
"N#CC[C@H](C1CCCC1)n1cc(-c2ncnc3[nH]ccc23)cn1 [ruxolitinib] + CNC(=O)c1cc(Oc2ccc(NC(=O)Nc3ccc(Cl)c(C(F)(F)F)c3)cc2)ccn1 [sorafenib] (first compound 1 µM, partner dose 0.4 µM)",96%,74.9%,137%,159%,71%,68.5%,105%,99.6%,115%,210%,101%,29%,143%,163%,62.2%,168%,124%,83.8%,89.2%
"O=c1[nH]nc(Sc2ncc([N+](=O)[O-])s2)n1-c1ccc2c(c1)OCCO2 + Cn1nnc2c(C(N)=O)ncn2c1=O [temozolomide] (first compound 0.2 µM, partner dose 2 µM)",2920%,104%,98.7%,240%,113%,128%,158%,275%,155%,76.7%,146%,49.2%,56.1%,67%,182%,47.3%,107%,212%,64.1%
"CCCCCCCCCCCCCCCCCCOP(=O)([O-])OC1CC[N+](C)(C)CC1 [Perifosine] + Cc1nc(Nc2ncc(C(=O)Nc3c(C)cccc3Cl)s2)cc(N2CCN(CCO)CC2)n1 [dasatanib] (first compound 0.4 µM, partner dose 0.004 µM)",178%,154%,141%,357%,78.8%,87.9%,77.9%,87.8%,69%,118%,187%,116%,134%,70.4%,41.1%,86.1%,47.8%,133%,55.2%
"CCCCCCCCCCCCCCCCCCOP(=O)([O-])OC1CC[N+](C)(C)CC1 [Perifosine] + C[C@]1(O)C[C@@H](c2nc(-c3ccc4ccc(-c5ccccc5)nc4c3)c3c(N)nccn32)C1 [OSI906] (first compound 0.4 µM, partner dose 0.4 µM)",146%,151%,110%,611%,87.8%,132%,124%,134%,109%,34.3%,58.5%,146%,92.8%,163%,133%,338%,198%,174%,65.2%
"N#CC[C@H](C1CCCC1)n1cc(-c2ncnc3[nH]ccc23)cn1 [ruxolitinib] + Nc1ncn([C@H]2C[C@H](O)[C@@H](CO)O2)c(=O)n1 [decitabine] (first compound 1 µM, partner dose 0.1 µM)",67.3%,29.3%,110%,192%,71.3%,88.2%,100%,83.4%,115%,30.3%,123%,16.5%,158%,180%,114%,127%,107%,172%,119%
"Cc1cn(-c2cc(NC(=O)c3ccc(C)c(Nc4nccc(-c5cccnc5)n4)c3)cc(C(F)(F)F)c2)cn1 [nilotinib] + O=C(O)c1ccc2c(c1)nc(Nc1cccc(Cl)c1)c1ccncc12 [CX4945] (first compound 0.2 µM, partner dose 0.4 µM)",81.8%,264%,155%,56.8%,270%,179%,110%,109%,162%,177%,79.5%,51.2%,136%,145%,92.5%,121%,96.2%,56.4%,190%
"O=C(Nc1cc(C(F)(F)F)cc(C(F)(F)F)c1)c1cc(Cl)ccc1O + COCC[n+]1c2c(n(Cc3cnccn3)c1C)C(=O)c1ccccc1C2=O [YM155] (first compound 0.016 µM, partner dose 0.0004 µM)",96.5%,98.1%,144%,72.4%,67.5%,518%,88.9%,159%,117%,84.5%,73.5%,53.7%,80.2%,102%,47.2%,98.5%,213%,42.3%,34.4%
"Cc1cc(Nc2cc(N3CCN(C)CC3)nc(Sc3ccc(NC(=O)C4CC4)cc3)n2)n[nH]1 [Tozasertib] + Cn1c(=O)n(-c2ccc(C(C)(C)C#N)cc2)c2c3cc(-c4cnc5ccccc5c4)ccc3ncc21 [NVP-BEZ235] (first compound 0.006 µM, partner dose 0.004 µM)",97.1%,99.6%,139%,88%,143%,52.8%,99.1%,90.8%,73.5%,60.8%,72.4%,86.9%,50%,56.1%,131%,141%,98.5%,149%,40.6%

# Reprinted at random: 2 records from the list, in no set order.
Compound,cleaved PARP positive nuclei fraction (501Mel),cleaved PARP positive nuclei fraction (A101D),cleaved PARP positive nuclei fraction (A2058),cleaved PARP positive nuclei fraction (A375),cleaved PARP positive nuclei fraction (C32),cleaved PARP positive nuclei fraction (CBRC008),cleaved PARP positive nuclei fraction (CBRC014),cleaved PARP positive nuclei fraction (CBRC016),cleaved PARP positive nuclei fraction (CBRC017),cleaved PARP positive nuclei fraction (CBRC034),cleaved PARP positive nuclei fraction (COLO792),cleaved PARP positive nuclei fraction (COLO800),cleaved PARP positive nuclei fraction (COLO829),cleaved PARP positive nuclei fraction (G361),cleaved PARP positive nuclei fraction (IPC-298),cleaved PARP positive nuclei fraction (IST-MEL1),cleaved PARP positive nuclei fraction (LB2518-MEL),cleaved PARP positive nuclei fraction (LOXIMVI),cleaved PARP positive nuclei fraction (MEL-HO)
"Cc1cn(-c2cc(NC(=O)c3ccc(C)c(Nc4nccc(-c5cccnc5)n4)c3)cc(C(F)(F)F)c2)cn1 [nilotinib] + Cn1nnc2c(C(N)=O)ncn2c1=O [temozolomide] (first compound 0.2 µM, partner dose 2 µM)",107%,371%,140%,177%,74.2%,65.4%,114%,100%,177%,82.1%,115%,92.3%,148%,189%,46.2%,32.9%,50.4%,251%,76.4%
"COc1cc([C@@H]2c3cc4c(cc3[C@@H](O[C@@H]3O[C@@H]5CO[C@@H](C)O[C@H]5[C@H](O)[C@H]3O)[C@H]3COC(=O)[C@H]23)OCO4)cc(OC)c1O [etoposide] + Cc1cc(Nc2cc(N3CCN(C)CC3)nc(/C=C/c3ccccc3)n2)n[nH]1 [ENMD2076] (first compound 0.02 µM, partner dose 0.04 µM)",69.3%,40%,90.4%,173%,90.4%,187%,78.5%,57%,68.9%,21.6%,103%,84%,68.3%,175%,85%,194%,56%,80.6%,103%
